Measurements published in US20260200997A1, “AFFINITY AGENTS” (Repligen Corporation, priority 2022, published 2026).
No constants are given. Whether binding was seen depends on the method and setting. Some binding calls cover weakened binding; strength is not graded here.

The chains behind the UniProt entries cited, without tags or fusion partners. Where a name states a change or a piece, a line headed by the entry shows the natural chain unless it says otherwise.
UniProt P00738: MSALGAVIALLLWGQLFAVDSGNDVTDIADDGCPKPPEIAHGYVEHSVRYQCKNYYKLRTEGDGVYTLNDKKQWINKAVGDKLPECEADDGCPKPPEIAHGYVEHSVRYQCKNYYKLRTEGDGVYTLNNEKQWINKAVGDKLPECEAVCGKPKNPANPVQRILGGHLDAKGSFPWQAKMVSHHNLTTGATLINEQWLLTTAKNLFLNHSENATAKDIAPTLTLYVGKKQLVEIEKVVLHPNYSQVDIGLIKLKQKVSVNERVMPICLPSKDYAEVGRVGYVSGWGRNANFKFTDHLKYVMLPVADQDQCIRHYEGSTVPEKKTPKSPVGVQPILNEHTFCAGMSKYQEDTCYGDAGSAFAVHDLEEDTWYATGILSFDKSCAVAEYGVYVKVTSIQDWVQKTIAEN

B1: SEQ ID NO. 55 (designed binder)
ligand: MVDAKFDKELEEARAEIERLPNLTEEQRRNFIQALRKDPSDSAYLLAIAKHWNDKQAPKAAAHHHHHHC
B2: SEQ ID NO. 56 (designed binder)
ligand: MVDAKFDKELEEARAEIERLPNLTEEQRRNFIQALRNDPSSSAGLLALAKHWNDKQAPKAAAHHHHHHC
B3: SEQ ID NO. 57 (designed binder)
ligand: MVDAKFDKELEEARAEIERLPNLTEEQRRNFIQAPRKDPSDSASLLALAKNWNDKQAPKAAAHHHHHHC
B4: SEQ ID NO. 58 (designed binder)
ligand: MVDAKFDKELEEARAEIERLPNLTEEQRRNFIQTLRDDPSSSAGLLALAKHWNDKQAPKAAAHHHHHHC
B5: SEQ ID NO. 59 (designed binder)
ligand: MVDAKFDKELEEARAEIERLPNLTEEQRRNIIRALRKDPSDSASLLAIAKNWNDKQAPKAAAHHHHHHC
B6: SEQ ID NO. 60 (designed binder)
ligand: MVDAKFDKELEEARAEIERLPNLTEEQRRNLIQALRDDSSSSAGLLALAKHWNDKQAPKAAAHHHHHHC
B7: SEQ ID NO. 61 (designed binder)
ligand: MVDAKFDKELEEARAEIERLPNLTEEQRRNLIQALRGDPSQSATLLAIAKNWNDKQAPKAAAHHHHHHC
B8: SEQ ID NO. 62 (designed binder)
ligand: MVDAKFDKELEEARAEIERLPNLTEERRRNFIQALRDDPSSSAGLLALAKHWNDKQAPKAAAHHHHHHC
B9: SEQ ID NO. 63 (designed binder)
ligand: MVDAKFDKELEEARAEIERLPNLTELQRREFIKFLRCDPSQSATLLAIAKTWNDKQAPKAAAHHHHHHC
B10: SEQ ID NO. 64 (designed binder)
ligand: MVDAKFDKELEEARAEIERLQNLTEEQRRNLIQALREDPSDSASLLAIAKNWNDKQAPKAAAHHHHHHC
B11: SEQ ID NO. 65 (designed binder)
ligand: MVDAKFDKELEEARAETERLPNLTEEQRRNFIQALRDDPSSSAGLLALPEHWNDKQAPKAAAHHHHHHC
B12: SEQ ID NO. 66 (designed binder)
ligand: MVDAKFDKELEEARVEIERLPNLTEEQRRNLIQALRKDPSDSASLLAIAKNWNDKQAPKAAAHHHHHHC
B13: SEQ ID NO. 67 (designed binder)
ligand: MVDAKFDKELKEARAEIERLPNLTEEQRRNLIQALRKDPSDSASLLAIAKNWNDKQAPKAAAHHHHHRL
B14: SEQ ID NO. 68 (designed binder)
ligand: MVDAKFDKELEEARAEIEGLPNLTEQQRRNFIHALRQDPSDSAALLAIAKAWDDRQAPKAAAHHHHHHC
B15: SEQ ID NO. 69 (designed binder)
ligand: MVDAKFDKELEEARAEIERLPNLTEQLRRNFIHALRQDPSDSAALLAIARAWYDRQAPKAAAHHHHHHC
B16: SEQ ID NO. 70 (designed binder)
ligand: MVDAKFDKELEEARAEIERLPNLTEQQRRNFIHALHQDPSDSAALLAIAKARNDRQAPKAAAHHHHHHC
B17: SEQ ID NO. 71 (designed binder)
ligand: MVDAKFDKELEEARAEIERLPNLTEQQRRNFIHALRQDPSDSAALLAIAKAWRDRQAPKAAAHHHHHHC
B18: SEQ ID NO. 72 (designed binder)
ligand: MVDAKFDKELEEARAEIERLPNLTEQQRRNFIHALRQDPSDSAALLAIAKSWNDRQAPKAAAHHHHHHC
B19: SEQ ID NO. 73 (designed binder)
ligand: MVDAKFDKELEEARAEIERLPNLTEQQRRNFIHALRQDPSDSAALLAIARAWYDRQAPKAAAHHHHHHC
B20: SEQ ID NO. 74 (designed binder)
ligand: MVDAKFDKELEEARAEIERLPNLTEQQRRNFIHALRQDQSDSAALLAIAKAWNDRQAPKAAAHHHHHHC
B21: SEQ ID NO. 75 (designed binder)
ligand: MVDAKFDKELEEARAEIERLPNLTEQQRRNLIHALRQDPSDSAALLAIAKAWNDRQAPKAAAHHHHHHC
B22: SEQ ID NO. 76 (designed binder)
ligand: MVDAKFDKELEEARAEIERLTNLTEQQRRNFIHALRQDPSDSAALLAIAKAWNDRQAPKAAAHHHHHHC
B23: SEQ ID NO. 77 (designed binder)
ligand: MVDAKFDKELEEARAEIGRLPDLTEQQRRNFTHTLRQDPSGSAALLAIAKAWNDRQAPKAAAHHHHHHC
B24: SEQ ID NO. 78 (designed binder)
ligand: MVDAKFDKELEEARAETERLPNLTEQQRRNFIHALRQDPSDSAALLAIAKAWNDRQAPKAAAHHHHHHC
B25: SEQ ID NO. 79 (designed binder)
ligand: MVDAKFDKELEVARAEIERLPNLTEQQRRNLIHALRQDPSDSAALLAIAKAWNDRQAPKAAAHHHHHHC
B26: SEQ ID NO. 80 (designed binder)
ligand: MVDAKFDKELEEARAEIERLPNLTEQQRRNFIHALRQDPSDSAALLAIAKAWSDRQAPKAAAHHHHHHC
B27: SEQ ID NO. 81 (designed binder)
ligand: MVDAKFDKELEEARAEIERLPNLTEQQRRNLIHALRQDPSDSASLLAIAKAWNDRQAPKAAAHHHHHHC
B28: SEQ ID NO. 82 (designed binder)
ligand: MVDAKFDKELEEARAEIERLPNLTEQQRRNFIHALRQDPSDSAAQLAIAKAWNDRQAPKAAAHHHHHHC
B29: SEQ ID NO. 83 (designed binder)
ligand: MVDAKFDKELEEARAEIGRLPDLTEQQRRNFIHTLRQDPSGSAALLAIAKAWNDRQAPKAAAHHHHHHC
B30: SEQ ID NO. 84 (designed binder)
ligand: MVDAKFDKELEEARAEIERLPNLTEQQRRNFIHALRQDLPDSAALLAIAKAWNDRQAPKAAAHHHHHHC
B31: SEQ ID NO. 85 (designed binder)
ligand: MVDAKFDKELEEARAEIERLPNLTEHQRRHFILALRHDPSDSAALLAIAKAWNDRQAPKAAAHHHHHHC
B32: SEQ ID NO. 86 (designed binder)
ligand: MVDAKFDKELEEARAEIERLPNLTEHQRRHFILALRDDPSDSAALLAIAKAWNDRQAPKAAAHHHHHHC
B33: SEQ ID NO. 87 (designed binder)
ligand: MVDAKFDKELEEARAEIERLPNLTEQQRRNFIHALRQDPSDSAALLAIAKAWNDRQAPKAAAHHHHHHC

target: Haptoglobin protein (UniProt P00738); assay: equilibrium batch binding to ligand-conjugated resin, 1.5 mg/mL haptoglobin, 60 min, A280 of unbound

binding, binds:
B1
B2
B3
B4
B5
B6
B7
B8
B9
B10
B11
B12
B13
B14
B15
B16
B17
B18
B19
B20
B21
B22
B23
B24
B25
B26
B27
B28
B29
B30
B31
B32
B33
